Values from PubChem BioAssay AID743454 (Peter MacCallum Cancer Centre, 2014).
In all, the deposit lists about 18,000 reagents; below is a random part of them. In the full data, 450 (2.5%) got an active call. 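Single biological run; no consistent viability z cut-off exists, so the class columns, not z-scores, define the calls.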 A number with no mark means an inactive call.

Assay: 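Search for knock-downs that restore vorinostat killing in resistant colon cancer cells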 (primary screen)
Cells: human HCT116-VR colon cancer cells, selected for vorinostat resistance
Reagents: siRNA pool against human genes, 40 nM siRNA pool
Duration: vorinostat for 24 h, read-out about 72 h after transfection
Conditions: vorinostat at 2.5 µM final
Measured: 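Cell viability by CellTiter-Fluor and caspase 3/7 activity by luminescence, each scaled to mock wells per plate, duplicates averaged, then robust z-scored over all plates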
Reading the numbers: viability robust z-score: higher = more viable cells than screen typical; caspase robust z-score: higher = more caspase 3/7 activity than screen typical
Hit rule: 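a knock-down is a hit when classed RV1 or RV2 for lowered viability, or CA1 or CA2 for caspase activation; those lethal without drug were dropped; hits were retested singly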

{"gene": "KDM3B", "viability hit class": "no change", "caspase hit class": "no change", "viability robust z-score": 0.22, "caspase robust z-score": -0.05}
{"gene": "MRPL42", "viability hit class": "no change", "caspase hit class": "no change", "viability robust z-score": -1.68, "caspase robust z-score": -0.55}
{"gene": "CD40LG", "viability hit class": "no change", "caspase hit class": "no change", "viability robust z-score": -0.05, "caspase robust z-score": 0.81}
{"gene": "HARS2", "viability hit class": "no change", "caspase hit class": "no change", "viability robust z-score": -0.12, "caspase robust z-score": 0}
{"gene": "ST3GAL6", "viability hit class": "no change", "caspase hit class": "no change", "viability robust z-score": 0.75, "caspase robust z-score": -1.02}
{"gene": "BPIFB1", "viability hit class": "no change", "caspase hit class": "no change", "viability robust z-score": -1.23, "caspase robust z-score": -0.04}
{"gene": "KRIT1", "viability hit class": "no change", "caspase hit class": "no change", "viability robust z-score": -0.86, "caspase robust z-score": -0.38}

Continued, starting with the last 3 of the part before.
{"gene": "ST3GAL6", "viability hit class": "no change", "caspase hit class": "no change", "viability robust z-score": 0.75, "caspase robust z-score": -1.02}
{"gene": "BPIFB1", "viability hit class": "no change", "caspase hit class": "no change", "viability robust z-score": -1.23, "caspase robust z-score": -0.04}
{"gene": "KRIT1", "viability hit class": "no change", "caspase hit class": "no change", "viability robust z-score": -0.86, "caspase robust z-score": -0.38}
{"gene": "INPP5F", "viability hit class": "no change", "caspase hit class": "no change", "viability robust z-score": -0.14, "caspase robust z-score": -0.33}
{"gene": "TNFSF13B", "viability hit class": "no change", "caspase hit class": "no change", "viability robust z-score": -0.38, "caspase robust z-score": 2.51}
{"gene": "OAT", "viability hit class": "no change", "caspase hit class": "no change", "viability robust z-score": -0.01, "caspase robust z-score": -0.06}
{"gene": "TRIM48", "viability hit class": "no change", "caspase hit class": "no change", "viability robust z-score": 0.7, "caspase robust z-score": 0.3}
{"gene": "VRK1", "viability hit class": "no change", "caspase hit class": "no change", "viability robust z-score": -0.57, "caspase robust z-score": 0.2}
{"gene": "DLX1", "viability hit class": "no change", "caspase hit class": "no change", "viability robust z-score": -0.75, "caspase robust z-score": 1.97}
{"gene": "NCAN", "viability hit class": "no change", "caspase hit class": "no change", "viability robust z-score": -2.82, "caspase robust z-score": 2.78}
{"gene": "VGLL1", "viability hit class": "no change", "caspase hit class": "no change", "viability robust z-score": -0.2, "caspase robust z-score": 2.46}
{"gene": "PCNP", "viability hit class": "no change", "caspase hit class": "no change", "viability robust z-score": 0.93, "caspase robust z-score": 0.34}
{"gene": "PDLIM1", "viability hit class": "no change", "caspase hit class": "no change", "viability robust z-score": -1.98, "caspase robust z-score": 0.89}
{"gene": "GPN3", "viability hit class": "no change", "caspase hit class": "no change", "viability robust z-score": -1.54, "caspase robust z-score": 2.91}
{"gene": "FOXH1", "viability hit class": "no change", "caspase hit class": "no change", "viability robust z-score": -0.64, "caspase robust z-score": 3.19}
{"gene": "VSIG2", "viability hit class": "no change", "caspase hit class": "no change", "viability robust z-score": -0.24, "caspase robust z-score": 1.01}
{"gene": "CWC27", "viability hit class": "no change", "caspase hit class": "no change", "viability robust z-score": -0.55, "caspase robust z-score": 0.6}
